Measurements: doi:10.1101/2023.08.13.546412 (bioRxiv, 2023)
Results are given in words; binding and its absence hold for the method and conditions named. Some binding calls cover weakened binding; strength is not graded here. Where a sequence is shown, tags or fusion partners need not be part of it.

Assays:
Experiment in all cases: two-hybrid
[1] = molecular target: T1, AtSK11-BD (Arabidopsis SHAGGY-like kinase 11, yeast two-hybrid fusion) (Arabidopsis thaliana) (UniProt P43288)
T1 sequence: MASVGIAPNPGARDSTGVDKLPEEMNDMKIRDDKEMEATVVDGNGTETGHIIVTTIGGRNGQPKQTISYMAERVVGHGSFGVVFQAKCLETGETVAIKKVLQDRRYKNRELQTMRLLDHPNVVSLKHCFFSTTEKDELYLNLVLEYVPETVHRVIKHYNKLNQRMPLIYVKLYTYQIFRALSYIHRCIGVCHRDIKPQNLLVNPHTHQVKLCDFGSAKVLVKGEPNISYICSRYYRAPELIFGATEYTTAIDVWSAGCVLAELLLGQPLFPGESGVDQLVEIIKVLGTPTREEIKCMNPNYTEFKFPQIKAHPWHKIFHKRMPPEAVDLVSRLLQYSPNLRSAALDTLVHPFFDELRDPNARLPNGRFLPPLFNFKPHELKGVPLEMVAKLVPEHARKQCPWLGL

[2] = molecular target: T2, AtSK41-BD (Arabidopsis SHAGGY-like kinase 41, yeast two-hybrid fusion) (Arabidopsis thaliana) (UniProt Q39019)
T2 sequence: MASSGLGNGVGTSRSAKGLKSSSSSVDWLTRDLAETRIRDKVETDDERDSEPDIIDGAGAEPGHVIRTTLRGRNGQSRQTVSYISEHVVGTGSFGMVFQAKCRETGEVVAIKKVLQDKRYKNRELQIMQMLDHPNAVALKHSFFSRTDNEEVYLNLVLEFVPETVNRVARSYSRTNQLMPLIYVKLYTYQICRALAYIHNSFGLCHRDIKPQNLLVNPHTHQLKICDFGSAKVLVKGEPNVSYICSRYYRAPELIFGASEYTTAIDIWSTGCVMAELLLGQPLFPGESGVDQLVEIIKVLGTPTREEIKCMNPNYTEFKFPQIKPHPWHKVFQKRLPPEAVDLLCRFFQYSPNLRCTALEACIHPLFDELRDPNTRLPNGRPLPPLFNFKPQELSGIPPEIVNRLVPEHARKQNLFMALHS

[3] = molecular target: T3, AtSK12-BD (Arabidopsis SHAGGY-like kinase 12, yeast two-hybrid fusion) (Arabidopsis thaliana) (UniProt P43289)
T3 sequence: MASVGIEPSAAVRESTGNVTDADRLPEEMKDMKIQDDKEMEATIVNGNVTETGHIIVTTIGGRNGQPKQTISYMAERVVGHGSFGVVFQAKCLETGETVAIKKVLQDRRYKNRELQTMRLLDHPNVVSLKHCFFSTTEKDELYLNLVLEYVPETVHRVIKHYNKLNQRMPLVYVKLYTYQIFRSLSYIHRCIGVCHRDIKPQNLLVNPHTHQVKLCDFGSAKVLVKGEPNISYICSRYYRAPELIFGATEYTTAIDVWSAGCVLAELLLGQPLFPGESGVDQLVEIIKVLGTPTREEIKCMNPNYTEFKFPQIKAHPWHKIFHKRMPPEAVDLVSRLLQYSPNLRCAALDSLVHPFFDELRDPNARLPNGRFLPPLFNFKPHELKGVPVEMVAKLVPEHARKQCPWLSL

[4] = molecular target: T4, AtSK22-BD (Arabidopsis SHAGGY-like kinase 22, yeast two-hybrid fusion) (Arabidopsis thaliana) (UniProt Q39012)
T4 sequence: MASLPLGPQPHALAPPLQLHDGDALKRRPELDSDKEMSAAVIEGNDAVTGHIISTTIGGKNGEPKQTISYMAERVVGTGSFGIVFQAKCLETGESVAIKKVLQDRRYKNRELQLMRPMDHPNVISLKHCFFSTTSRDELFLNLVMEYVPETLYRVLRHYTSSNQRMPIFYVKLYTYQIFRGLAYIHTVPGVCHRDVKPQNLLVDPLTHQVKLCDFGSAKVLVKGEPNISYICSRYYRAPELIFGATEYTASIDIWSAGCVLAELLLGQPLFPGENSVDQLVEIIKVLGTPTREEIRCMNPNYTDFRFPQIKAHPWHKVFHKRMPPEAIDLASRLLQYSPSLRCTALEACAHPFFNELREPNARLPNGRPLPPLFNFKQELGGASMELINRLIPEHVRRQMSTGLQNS

[5] = molecular target: T5, AtSK21-BD (Arabidopsis SHAGGY-like kinase 21, yeast two-hybrid fusion) (Arabidopsis thaliana) (UniProt Q39011)
T5 sequence: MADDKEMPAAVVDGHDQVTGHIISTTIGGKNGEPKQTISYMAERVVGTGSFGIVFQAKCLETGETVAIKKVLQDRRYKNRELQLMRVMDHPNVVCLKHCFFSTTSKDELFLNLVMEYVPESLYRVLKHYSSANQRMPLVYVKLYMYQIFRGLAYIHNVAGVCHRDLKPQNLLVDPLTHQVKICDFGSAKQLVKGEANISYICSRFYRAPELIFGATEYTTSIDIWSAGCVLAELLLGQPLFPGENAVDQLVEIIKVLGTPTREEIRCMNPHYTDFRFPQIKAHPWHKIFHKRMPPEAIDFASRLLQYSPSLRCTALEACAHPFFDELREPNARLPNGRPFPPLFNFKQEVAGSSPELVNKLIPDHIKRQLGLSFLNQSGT

B1: WOX5-AD (WUSCHEL-RELATED HOMEOBOX 5, yeast two-hybrid fusion) (protein, UniProt Q8H1D2 1-182)
chain: MSFSVKGRSLRGNNNGGTGTKCGRWNPTVEQLKILTDLFRAGLRTPTTDQIQKISTELSFYGKIESKNVFYWFQNHKARERQKRRKISIDFDHHHHQPSTRDVFEISEEDCQEEEKVIETLQLFPVNSFEDSNSKVDKMRARGNNQYREYIRETTTTSFSPYSSCGAEMEHPPPLDLRLSFL
- binding [1]: no binding
- binding [2]: no binding
- binding [3]: no binding
- binding [4]: binds weakly
- binding [5]: binds weakly
